Source: PMC11117474
No constants are given. Whether binding was seen depends on the method and setting. Binding calls can cover weak binding; strength is not graded here.

Legend:
[1] = target: armadillo-repeat domain of plakophilin 1 (ARM-PKP1); experiment: far-UV circular dichroism (complex against sum of the isolated proteins); RYBP 20 uM, ARM-PKP1 2 uM; 25 °C; 20 mM Tris pH 7.5, 5 mM TCEP, 150 mM NaCl; 0.1 cm cell; both purified
[2] = target: armadillo-repeat domain of plakophilin 1 (ARM-PKP1); experiment: steady-state fluorescence spectra (complex against sum of the isolated proteins); RYBP 20 uM, ARM-PKP1 2 uM; 25 °C; 20 mM Tris pH 7.5, 5 mM TCEP, 150 mM NaCl; excitation at 280 or 295 nm; both purified

B1: RYBP (RING1A and YY1 binding protein) (protein, UniProt Q8N488 1-228)
chain: MTMGDKKSPTRPKRQAKPAADEGFWDCSVCTFRNSAEAFKCSICDVRKGTSTRKPRINSQLVAQQVAQQYATPPPPKKEKKEKVEKQDKEKPEKDKEISPSVTKKNTNKKTKPKSDILKDPPSEANSIQSANATTKTSETNHTSRPRLKNVDRSTAQQLAVTVGNVTVIITDFKEKTRSSSTSSSTVTSSAGSEQQNQSSSGSESTDKGSSRSSTPKGDMSAVNDESF
binding [1]: binds
binding [2]: binds
